Out of some 320,000 compounds screened, about 22,000 (6.9%) were called active. Inconclusive means that the source gave no clear call. Such entries were picked first, then a sample of the others. The call rests on the fitted dose curve; in most records, active means well fitted inhibition curve with a large enough effect; inconclusive means small, poorly fitted or top-dose-only effect, or another doubt; inactive means no such curve, though single readings can be large or run the other way. Potencies of inconclusive entries are doubtful fits and often do not repeat.
test: Primary qHTS for delayed death inhibitors of the malarial parasite plastid, 96 hour incubation; conditions: P. falciparum luciferase reporter growth; series mostly up to 28.7 µM
In short: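 Erythrocytes infected with luciferase-expressing P. falciparum were dispensed at 2% hematocrit and 0.05% parasitemia (final), then incubated with compounds 96 hours at 37 C in 5% CO2. Luminescence after detection reagent addition reported growth.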
Potency means the concentration at half of the fitted maximal effect.

**Q.** For `Fc1ccc(/C=N/N2CCOCC2)c(F)c1`, which Potency is on record?
**A.** Its Potency is “inactive”.

**Q.** Which Potency does the source give for `COc1ccc2[nH]c3c(NCCC4=CCCCC4)ncnc3c2c1` here?
**A.** Its Potency is active: 3.7 µM.

**Q.** Which Potency does the source give for `CC(C)Nc1nc(NC(C)C)nc(OCCOC(=O)c2ccccc2)n1` here?
**A.** Its Potency is inconclusive: 18.5 µM [inhibitor, single point].

**Q.** For `COc1ccc(CNC(=O)/C=C/c2ccc(OCCCF)cc2)cc1OC`, which Potency is on record?
**A.** The Potency was inconclusive: 4.15 µM [inhibitor, partial curve].

**Q.** With `CC(=O)N1CCN(c2ccc(NC(=S)NC(=O)c3ccccc3)cc2)CC1` as the molecule, how does the Potency read?
**A.** The Potency was inconclusive: 10.4 µM [inhibitor, single point].

**Q.** With `Cc1csc(CNc2ncnc3ccc(-c4ccc5c(ccn5C)c4)cc23)c1` as the molecule, how does the Potency read?
**A.** The Potency was active: 5.86 µM.

**Q.** With `CCc1ccc(NC(=O)c2ccc(NC3=NC4CS(=O)(=O)CC4S3)cc2)cc1` (stereo not given) as the molecule, how does the Potency read?
**A.** Its Potency is inconclusive: 0.037 µM [inhibitor, full curve, poor fit].

**Q.** Which Potency does the source give for `C/C(=N\Nc1nc2ccccc2[nH]1)c1cc2ccccc2o1` here?
**A.** Its Potency is inconclusive: 0.828 µM [inhibitor, full curve, poor fit].

**Q.** For `COc1ccc(NS(=O)(=O)c2ccc(NS(=O)(=O)c3cccc(C(=O)O)c3)cc2)cc1`, which Potency is on record?
**A.** The Potency was “inactive”.

**Q.** With `COc1ccc(C(=O)Nc2cc3c(cc2OC)CCCC3)cc1Br` as the molecule, how does the Potency read?
**A.** The Potency was inconclusive: 5.86 µM [inhibitor, partial curve, poor fit].

**Q.** With `CC(C)c1ccc(S(=O)(=O)N2CCN(C(=O)C3CCCCC3)CC2)cc1` as the molecule, how does the Potency read?
**A.** Its Potency is inconclusive: 18.5 µM [inhibitor, single point].

**Q.** With `Cc1ccc[n+](-c2nc3ccccc3nc2C(=C=[N-])C#N)c1` as the molecule, how does the Potency read?
**A.** Its Potency is inconclusive: 7.38 µM [inhibitor, partial curve, poor fit].

**Q.** For `CC(=O)c1c(C)[nH]c(C(=O)Nc2nc(-c3ccccc3)c(C)s2)c1C`, which Potency is on record?
**A.** The Potency was “inactive”.

**Q.** Which Potency does the source give for `CCC(C)c1ccc(S(=O)(=O)N2CCN(CC(O)COCC3CCCO3)CC2)cc1` (stereo not given) here?
**A.** Its Potency is “inactive”.

**Q.** For `Cc1nc([N+](=O)[O-])cn1CC(=O)Nc1ccc([N+](=O)[O-])cc1`, which Potency is on record?
**A.** The Potency was inconclusive: 18.5 µM [inhibitor, single point].

**Q.** Which Potency does the source give for `Cc1ccc(S(=O)(=O)N(CC(=O)NCCSc2ccccn2)c2cc(C)cc(C)c2)cc1` here?
**A.** The Potency was inconclusive: 10.4 µM [inhibitor, partial curve].

**Q.** Which Potency does the source give for `O=C(CN1C(=O)NC2(CCc3ccccc32)C1=O)Nc1ccccc1OC(F)F` (stereo not given) here?
**A.** The Potency was inconclusive: 9.28 µM [inhibitor, single point].

**Q.** For `Cc1cc(NC(=O)CSc2nnnn2-c2ccc(C(C)C)cc2)no1`, which Potency is on record?
**A.** Its Potency is inconclusive: 7.38 µM [inhibitor, single point].

**Q.** With `CCC(C(=O)NC1CCCCC1)n1nc(C)c2c(C)n(-c3ccccc3)nc2c1=O` (stereo not given) as the molecule, how does the Potency read?
**A.** The Potency was inconclusive: 18.5 µM [inhibitor, single point].

**Q.** With `CC1(C)Cc2cccc(OCC(=O)NCc3ccccc3)c2O1` as the molecule, how does the Potency read?
**A.** The Potency was inconclusive: 9.28 µM [inhibitor, single point].

**Q.** For `CC1CCCN(S(=O)(=O)c2ccc(C(=O)Nc3nnc(-c4ccncc4)o3)cc2)C1` (stereo not given), which Potency is on record?
**A.** Its Potency is inconclusive: 18.5 µM [inhibitor, single point].

**Q.** With `CC(=O)Nc1ccc(-c2csc(NC(=O)C3CSC4(C)CCC(=O)N34)n2)cc1` (stereo not given) as the molecule, how does the Potency read?
**A.** The Potency was “inactive”.

**Q.** With `CCN(CC)c1ccc(NC(=O)CCc2nnc3ccc(N4CCCC4)nn23)c(C)c1` as the molecule, how does the Potency read?
**A.** Its Potency is inconclusive: 10.4 µM [inhibitor, single point].

**Q.** For `Cc1c(OC(C(=O)O)c2ccccc2)ccc2c3c(c(=O)oc12)CCC3` (stereo not given), which Potency is on record?
**A.** Its Potency is inconclusive: 18.5 µM [inhibitor, single point].

**Q.** For `Cc1ccc(C(CC(=O)O)NC(=O)c2ccc(S(=O)(=O)N3CCCC3)cc2)cc1` (stereo not given), which Potency is on record?
**A.** The Potency was “inactive”.

**Q.** With `Cc1cc(C=C2C(=O)N(C)C(=S)N(C)C2=O)c(C)n1-c1cccnc1` as the molecule, how does the Potency read?
**A.** Its Potency is inconclusive: 2.62 µM [inhibitor, partial curve, poor fit].

**Q.** For `COc1ccc(C2C(=O)c3ccccc3C2=Nc2ccc(Br)cc2)cc1` (stereo not given), which Potency is on record?
**A.** Its Potency is inconclusive: 0.117 µM [inhibitor, full curve, poor fit].

**Q.** Which Potency does the source give for `O=C(NCCc1ccc(Cl)cc1)c1ccc(S(=O)(=O)N2CCCC2)cc1` here?
**A.** Its Potency is inconclusive: 0.465 µM [inhibitor, partial curve, poor fit].

**Q.** Which Potency does the source give for `COC(=O)c1ccccc1NC(=O)Cn1nnc(-c2ccc3c(c2)OCO3)n1` here?
**A.** The Potency was “inactive”.

**Q.** Which Potency does the source give for `O=[N+]([O-])c1cccc(CSC2=NCCN2S(=O)(=O)c2ccccc2)c1` here?
**A.** Its Potency is inconclusive: 16.5 µM [inhibitor, partial curve, poor fit].

**Q.** With `OCC[C@H]1C[C@H](O)[C@@H](O)[C@]2(CCCc3ccccc3O2)O1` as the molecule, how does the Potency read?
**A.** The Potency was “inactive”.

**Q.** For `OC(CNCc1ccc(Cl)cc1)COc1ccccc1` (stereo not given), which Potency is on record?
**A.** The Potency was “inactive”.

**Q.** With `Cc1ccc2cc(C)c(N3CCN(c4ccc(F)cc4)CC3)nc2c1` as the molecule, how does the Potency read?
**A.** The Potency was inconclusive: 18.5 µM [inhibitor, single point].

**Q.** With `CCOc1ccccc1NC(=O)CSc1nnc2ccc(-c3cccnc3)nn12` as the molecule, how does the Potency read?
**A.** The Potency was inconclusive: 6.57 µM [inhibitor, partial curve, poor fit].

**Q.** Which Potency does the source give for `O=C(c1ccccc1)c1cc2cc(Cl)ccc2[nH]1` here?
**A.** The Potency was “inactive”.

**Q.** For `CS/C(Nc1cc(Cl)ccc1Cl)=C(/C#N)C(=O)c1ccco1`, which Potency is on record?
**A.** Its Potency is active: 5.86 µM.

**Q.** For `c1ccc2c(N3CCOCC3)nc(-c3ccncc3)nc2c1`, which Potency is on record?
**A.** Its Potency is “inactive”.

**Q.** With `CCCCOc1ccc(CSC(=N)N)cc1[N+](=O)[O-]` as the molecule, how does the Potency read?
**A.** The Potency was active: 2.33 µM.

**Q.** Which Potency does the source give for `CCCc1ccc(C(C)NC(=S)NCc2ccc(F)cc2)cc1` (stereo not given) here?
**A.** The Potency was active: 11.7 µM.

**Q.** For `COc1cc([N+](=O)[O-])cc(/C=N/NC(=O)C(O)(c2ccccc2)c2ccccc2)c1O`, which Potency is on record?
**A.** The Potency was inconclusive: 18.5 µM [inhibitor, single point].

**Q.** With `O=c1[nH]c(=O)n(Cc2ccccc2)c(O)c1/C=N/NCCO` as the molecule, how does the Potency read?
**A.** The Potency was “inactive”.

**Q.** For `CC(=O)N1N=C(c2cccc([N+](=O)[O-])c2)OC1c1ccc(Br)cc1` (stereo not given), which Potency is on record?
**A.** Its Potency is “inactive”.

**Q.** Which Potency does the source give for `Clc1ccc(Cn2nnc3ccccc32)cc1` here?
**A.** Its Potency is “inactive”.

**Q.** With `O=C1c2cccc3cc([N+](=O)[O-])cc(c23)C(=O)N1/N=C/c1ccc(O)cc1O` as the molecule, how does the Potency read?
**A.** The Potency was inconclusive: 18.5 µM [inhibitor, single point].

**Q.** With `O=C(Nc1ccc(F)cc1)C1(S(=O)(=O)c2ccc(Cl)cc2)CC1` as the molecule, how does the Potency read?
**A.** The Potency was inconclusive: 0.0586 µM [inhibitor, full curve].

— PubChem BioAssay AID504834 (National Center for Advancing Translational Sciences (NCATS), 2011)
